Laboratory results as given in the supplement of paper PMC10077471.
Over roughly 1,900 compounds, “excess over highest single agent (ExcessHSA) synergy score, 6x6 matrix” has its median near -83; the lowest 2% begin near -370. This is one part of the list.

Test system: NCI-H446
Experiment: excess over highest single agent (ExcessHSA) synergy score, 6x6 matrix; higher = less synergy (more negative = stronger synergy)
Conditions: 72 h; CellTiter-Glo viability

Row | Compound | excess over highest single agent
1 | COc1ccc(CCN(C)CCCC(C#N)(c2ccc(OC)c(OC)c2)C(C)C)cc1OC (configuration not stated) + Cc1sc2c(c1C)C(c1ccc(Cl)cc1)=N[C@@H](CC(=O)OC(C)(C)C)c1nnc(C)n1-2 [NCGC00250412-19] | -121
2 | C=C1C(=O)O[C@@H]2/C=C(\C)CC/C=C(\C)CC[C@@H]12 + Cc1sc2c(c1C)C(c1ccc(Cl)cc1)=N[C@@H](CC(=O)OC(C)(C)C)c1nnc(C)n1-2 [NCGC00250412-19] | -251
3 | CCOC(=O)C1=C[C@@H](OC(CC)CC)[C@H](NC(C)=O)[C@@H](N)C1 + Cc1sc2c(c1C)C(c1ccc(Cl)cc1)=N[C@@H](CC(=O)OC(C)(C)C)c1nnc(C)n1-2 [NCGC00250412-19] | -27.5
4 | C[C@]12CCC(=O)C=C1CC[C@@H]1[C@@H]2[C@@H](O)C[C@@]2(C)[C@H]1CC[C@]2(O)C(=O)CO + Cc1sc2c(c1C)C(c1ccc(Cl)cc1)=N[C@@H](CC(=O)OC(C)(C)C)c1nnc(C)n1-2 [NCGC00250412-19] | -51.3
5 | O=C(CCc1ccc(O)cc1)c1c(O)cc(O)cc1O[C@@H]1O[C@H](CO)[C@@H](O)[C@H](O)[C@H]1O + Cc1sc2c(c1C)C(c1ccc(Cl)cc1)=N[C@@H](CC(=O)OC(C)(C)C)c1nnc(C)n1-2 [NCGC00250412-19] | -20.4
6 | Oc1ncnc2[nH]ncc12 + Cc1sc2c(c1C)C(c1ccc(Cl)cc1)=N[C@@H](CC(=O)OC(C)(C)C)c1nnc(C)n1-2 [NCGC00250412-19] | -18.8
7 | COc1cccc2c1[C@]13CCN(CC4CC4)[C@H](C2)[C@]1(OC)CCC(=O)C3 + Cc1sc2c(c1C)C(c1ccc(Cl)cc1)=N[C@@H](CC(=O)OC(C)(C)C)c1nnc(C)n1-2 [NCGC00250412-19] | -55
8 | COc1cc2c(N3CCN(C(=O)Nc4ccc(OC(C)C)cc4)CC3)ncnc2cc1OCCCN1CCCCC1 + Cc1sc2c(c1C)C(c1ccc(Cl)cc1)=N[C@@H](CC(=O)OC(C)(C)C)c1nnc(C)n1-2 [NCGC00250412-19] | 20.7
9 | Cc1cc(O)c2c(c1)C(=O)c1cccc(O)c1C2=O + Cc1sc2c(c1C)C(c1ccc(Cl)cc1)=N[C@@H](CC(=O)OC(C)(C)C)c1nnc(C)n1-2 [NCGC00250412-19] | -314
10 | CC(C(=O)O)c1ccc(-c2ccccc2)c(F)c1 (configuration not stated) + Cc1sc2c(c1C)C(c1ccc(Cl)cc1)=N[C@@H](CC(=O)OC(C)(C)C)c1nnc(C)n1-2 [NCGC00250412-19] | 5.19
11 | C[C@H]1O[C@@H](O[C@H]2[C@@H](O)C[C@H](O[C@H]3[C@@H](O)C[C@H](O[C@H]4CC[C@@]5(C)[C@H](CC[C@@H]6[C@@H]5C[C@@H](O)[C@]5(C)[C@@H](C7=CC(=O)OC7)CC[C@]65O)C4)O[C@@H]3C)O[C@@H]2C)C[C@H](O)[C@@H]1O + Cc1sc2c(c1C)C(c1ccc(Cl)cc1)=N[C@@H](CC(=O)OC(C)(C)C)c1nnc(C)n1-2 [NCGC00250412-19] | -83.2
12 | C=CCc1cccc(/C=N/NC(=O)CN2CCN(Cc3ccccc3)CC2)c1O + Cc1sc2c(c1C)C(c1ccc(Cl)cc1)=N[C@@H](CC(=O)OC(C)(C)C)c1nnc(C)n1-2 [NCGC00250412-19] | 0.41
13 | O=C(Nc1cccc(C(F)(F)F)c1)Nc1cc(S(=O)(=O)NC2CC2)ccc1-c1ccsc1 + Cc1sc2c(c1C)C(c1ccc(Cl)cc1)=N[C@@H](CC(=O)OC(C)(C)C)c1nnc(C)n1-2 [NCGC00250412-19] | -216
14 | O=C1c2c(O)cccc2C([C@@H]2O[C@H](CO)[C@@H](O)[C@H](O)[C@H]2O)c2cc(CO)cc(O)c21 (some centres not stated) + Cc1sc2c(c1C)C(c1ccc(Cl)cc1)=N[C@@H](CC(=O)OC(C)(C)C)c1nnc(C)n1-2 [NCGC00250412-19] | -67.8
15 | NC(=O)c1ccc(-c2nc(-c3ccc4c(c3)OCCO4)c(-c3ccccn3)[nH]2)cc1 + Cc1sc2c(c1C)C(c1ccc(Cl)cc1)=N[C@@H](CC(=O)OC(C)(C)C)c1nnc(C)n1-2 [NCGC00250412-19] | 109
16 | Nc1nc2[nH]cnc2c(=S)[nH]1 + Cc1sc2c(c1C)C(c1ccc(Cl)cc1)=N[C@@H](CC(=O)OC(C)(C)C)c1nnc(C)n1-2 [NCGC00250412-19] | -51.5
17 | Cc1ccccc1C(=O)Nc1ccc(C(=O)N2CCCC(O)c3cc(Cl)ccc32)c(C)c1 (configuration not stated) + Cc1sc2c(c1C)C(c1ccc(Cl)cc1)=N[C@@H](CC(=O)OC(C)(C)C)c1nnc(C)n1-2 [NCGC00250412-19] | -36.8
18 | CN(C)C(=O)C(CCN1CCC(O)(c2ccc(Cl)cc2)CC1)(c1ccccc1)c1ccccc1 + Cc1sc2c(c1C)C(c1ccc(Cl)cc1)=N[C@@H](CC(=O)OC(C)(C)C)c1nnc(C)n1-2 [NCGC00250412-19] | -136
19 | COc1cc(C[C@@H](CO)[C@H](CO)Cc2ccc(O)c(OC)c2)ccc1O + Cc1sc2c(c1C)C(c1ccc(Cl)cc1)=N[C@@H](CC(=O)OC(C)(C)C)c1nnc(C)n1-2 [NCGC00250412-19] | -58.8

A different layout for part of the listing above:

| Row | Compound | excess over highest single agent |
| --- | --- | --- |
| 1 | COc1ccc(CCN(C)CCCC(C#N)(c2ccc(OC)c(OC)c2)C(C)C)cc1OC (configuration not stated) + Cc1sc2c(c1C)C(c1ccc(Cl)cc1)=N[C@@H](CC(=O)OC(C)(C)C)c1nnc(C)n1-2 [NCGC00250412-19] | -121 |
| 3 | CCOC(=O)C1=C[C@@H](OC(CC)CC)[C@H](NC(C)=O)[C@@H](N)C1 + Cc1sc2c(c1C)C(c1ccc(Cl)cc1)=N[C@@H](CC(=O)OC(C)(C)C)c1nnc(C)n1-2 [NCGC00250412-19] | -27.5 |
| 4 | C[C@]12CCC(=O)C=C1CC[C@@H]1[C@@H]2[C@@H](O)C[C@@]2(C)[C@H]1CC[C@]2(O)C(=O)CO + Cc1sc2c(c1C)C(c1ccc(Cl)cc1)=N[C@@H](CC(=O)OC(C)(C)C)c1nnc(C)n1-2 [NCGC00250412-19] | -51.3 |
| 7 | COc1cccc2c1[C@]13CCN(CC4CC4)[C@H](C2)[C@]1(OC)CCC(=O)C3 + Cc1sc2c(c1C)C(c1ccc(Cl)cc1)=N[C@@H](CC(=O)OC(C)(C)C)c1nnc(C)n1-2 [NCGC00250412-19] | -55 |
| 10 | CC(C(=O)O)c1ccc(-c2ccccc2)c(F)c1 (configuration not stated) + Cc1sc2c(c1C)C(c1ccc(Cl)cc1)=N[C@@H](CC(=O)OC(C)(C)C)c1nnc(C)n1-2 [NCGC00250412-19] | 5.19 |
| 11 | C[C@H]1O[C@@H](O[C@H]2[C@@H](O)C[C@H](O[C@H]3[C@@H](O)C[C@H](O[C@H]4CC[C@@]5(C)[C@H](CC[C@@H]6[C@@H]5C[C@@H](O)[C@]5(C)[C@@H](C7=CC(=O)OC7)CC[C@]65O)C4)O[C@@H]3C)O[C@@H]2C)C[C@H](O)[C@@H]1O + Cc1sc2c(c1C)C(c1ccc(Cl)cc1)=N[C@@H](CC(=O)OC(C)(C)C)c1nnc(C)n1-2 [NCGC00250412-19] | -83.2 |
| 14 | O=C1c2c(O)cccc2C([C@@H]2O[C@H](CO)[C@@H](O)[C@H](O)[C@H]2O)c2cc(CO)cc(O)c21 (some centres not stated) + Cc1sc2c(c1C)C(c1ccc(Cl)cc1)=N[C@@H](CC(=O)OC(C)(C)C)c1nnc(C)n1-2 [NCGC00250412-19] | -67.8 |

(list continues)

Row | Compound | excess over highest single agent
20 | COc1cc(C(=O)NC2CCN(C)CC2)ccc1Nc1ncc2c(n1)N(C1CCCC1)CCC(=O)N2C(C)C + Cc1sc2c(c1C)C(c1ccc(Cl)cc1)=N[C@@H](CC(=O)OC(C)(C)C)c1nnc(C)n1-2 [NCGC00250412-19] | -126
21 | CCN(CC)CCNC(=O)c1c(C)[nH]c(/C=C2\C(=O)Nc3ccc(F)cc32)c1C + Cc1sc2c(c1C)C(c1ccc(Cl)cc1)=N[C@@H](CC(=O)OC(C)(C)C)c1nnc(C)n1-2 [NCGC00250412-19] | -148
22 | COc1ccc(/C=C/C(=O)Nc2ccccc2C(=O)O)cc1OC + Cc1sc2c(c1C)C(c1ccc(Cl)cc1)=N[C@@H](CC(=O)OC(C)(C)C)c1nnc(C)n1-2 [NCGC00250412-19] | -177
23 | Oc1ccc(/C=C/c2cc(O)cc(O)c2)cc1 + Cc1sc2c(c1C)C(c1ccc(Cl)cc1)=N[C@@H](CC(=O)OC(C)(C)C)c1nnc(C)n1-2 [NCGC00250412-19] | -81.7
24 | C=C1C(=O)[C@]23[C@H](O)[C@H]1CC[C@H]2[C@@]12CO[C@]3(O)[C@@H](O)[C@@H]1C(C)(C)CC[C@@H]2O + Cc1sc2c(c1C)C(c1ccc(Cl)cc1)=N[C@@H](CC(=O)OC(C)(C)C)c1nnc(C)n1-2 [NCGC00250412-19] | -378
25 | NC(=O)c1ccc2[nH]ccc2c1 + Cc1sc2c(c1C)C(c1ccc(Cl)cc1)=N[C@@H](CC(=O)OC(C)(C)C)c1nnc(C)n1-2 [NCGC00250412-19] | -135
26 | CCOc1cc2ncc(C#N)c(Nc3ccc(F)c(Cl)c3)c2cc1NC(=O)/C=C/CN(C)C + Cc1sc2c(c1C)C(c1ccc(Cl)cc1)=N[C@@H](CC(=O)OC(C)(C)C)c1nnc(C)n1-2 [NCGC00250412-19] | -127
27 | CC[C@]1(O)C[C@H]2CN(CCc3c([nH]c4ccccc34)[C@@](C(=O)OC)(c3cc4c(cc3OC)N(C=O)[C@H]3[C@@](O)(C(=O)OC)[C@H](OC(C)=O)[C@]5(CC)C=CCN6CC[C@]43[C@@H]65)C2)C1 + Cc1sc2c(c1C)C(c1ccc(Cl)cc1)=N[C@@H](CC(=O)OC(C)(C)C)c1nnc(C)n1-2 [NCGC00250412-19] | -144
28 | CCOc1ccc(Nc2nc(-c3c(C)nc4ccccn34)cs2)cc1 + Cc1sc2c(c1C)C(c1ccc(Cl)cc1)=N[C@@H](CC(=O)OC(C)(C)C)c1nnc(C)n1-2 [NCGC00250412-19] | -146
29 | Cc1c[nH]c(C=C2C(=O)Nc3ccccc32)c1CCC(=O)O + Cc1sc2c(c1C)C(c1ccc(Cl)cc1)=N[C@@H](CC(=O)OC(C)(C)C)c1nnc(C)n1-2 [NCGC00250412-19] | 66.3
30 | CN[C@@H](C)C(=O)N[C@H]1CN(C(=O)CC(C)C)CC[C@H]2CC[C@@H](C(=O)NC(c3ccccc3)c3ccccc3)N2C1=O + Cc1sc2c(c1C)C(c1ccc(Cl)cc1)=N[C@@H](CC(=O)OC(C)(C)C)c1nnc(C)n1-2 [NCGC00250412-19] | -114
31 | CN1[C@@H]2CC[C@H]1C[C@@H](OC(=O)c1c[nH]c3ccccc13)C2 + Cc1sc2c(c1C)C(c1ccc(Cl)cc1)=N[C@@H](CC(=O)OC(C)(C)C)c1nnc(C)n1-2 [NCGC00250412-19] | -10.6
32 | COc1ccc(-c2c(-c3ccc(O)cc3O)n[nH]c2C)cc1 + Cc1sc2c(c1C)C(c1ccc(Cl)cc1)=N[C@@H](CC(=O)OC(C)(C)C)c1nnc(C)n1-2 [NCGC00250412-19] | 40.9
33 | Nc1ccn([C@H]2CC[C@@H](CO)O2)c(=O)n1 + Cc1sc2c(c1C)C(c1ccc(Cl)cc1)=N[C@@H](CC(=O)OC(C)(C)C)c1nnc(C)n1-2 [NCGC00250412-19] | -88.7
34 | CCc1cc(Nc2nccc(-c3c(-c4ccc(OC)c(C(=O)Nc5c(F)cccc5F)c4)nc4ccccn34)n2)c(OC)cc1N1CCC(N2CCN(S(C)(=O)=O)CC2)CC1 + Cc1sc2c(c1C)C(c1ccc(Cl)cc1)=N[C@@H](CC(=O)OC(C)(C)C)c1nnc(C)n1-2 [NCGC00250412-19] | -94.4
35 | CNC(=O)c1cccc(-c2ccc3c(N4CCOC[C@@H]4C)nc(N4CCOC[C@@H]4C)nc3n2)c1 + Cc1sc2c(c1C)C(c1ccc(Cl)cc1)=N[C@@H](CC(=O)OC(C)(C)C)c1nnc(C)n1-2 [NCGC00250412-19] | -175
36 | COc1cccc(-c2cc(=O)c3ccccc3o2)c1N + Cc1sc2c(c1C)C(c1ccc(Cl)cc1)=N[C@@H](CC(=O)OC(C)(C)C)c1nnc(C)n1-2 [NCGC00250412-19] | -128
37 | CO[C@@H]1[C@H](N(C)C(=O)c2ccccc2)C[C@H]2O[C@]1(C)n1c3ccccc3c3c4c(c5c6ccccc6n2c5c31)C(=O)NC4 + Cc1sc2c(c1C)C(c1ccc(Cl)cc1)=N[C@@H](CC(=O)OC(C)(C)C)c1nnc(C)n1-2 [NCGC00250412-19] | -207
